From article PMC8961534, “Interaction with the Assembly Chaperone Ump1 Promotes Incorporation of the β7 Subunit into Half-Proteasome Precursor Complexes Driving Their Dimerization” (Biomolecules, 2022)

The chains behind the UniProt entries cited, without tags or fusion partners. Where a name states a change or a piece, a line headed by the entry shows the natural chain unless it says otherwise.
UniProt P30657: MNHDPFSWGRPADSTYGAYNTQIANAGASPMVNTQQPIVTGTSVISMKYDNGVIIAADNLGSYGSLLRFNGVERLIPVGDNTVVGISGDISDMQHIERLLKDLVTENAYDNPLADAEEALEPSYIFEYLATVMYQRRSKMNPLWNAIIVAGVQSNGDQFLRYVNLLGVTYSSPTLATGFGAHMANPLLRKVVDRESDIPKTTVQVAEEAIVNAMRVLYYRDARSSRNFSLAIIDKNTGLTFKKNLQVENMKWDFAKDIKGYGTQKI
UniProt P38624: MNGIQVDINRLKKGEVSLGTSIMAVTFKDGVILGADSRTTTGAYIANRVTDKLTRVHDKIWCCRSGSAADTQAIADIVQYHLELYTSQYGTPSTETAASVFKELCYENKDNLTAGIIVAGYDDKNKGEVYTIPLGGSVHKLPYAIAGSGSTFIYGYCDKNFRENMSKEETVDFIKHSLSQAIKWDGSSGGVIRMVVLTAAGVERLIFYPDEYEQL

Tests used:
[1] = biological target: T1, Ump1 C-terminal part (82–148)-6His (S. cerevisiae) (UniProt P38293); assay: pull-down; Ump1-6His variants purified from E. coli extracts loaded on Ni-NTA beads; purified untagged β7 or β1 added, 1 h, 4 °C, lysis buffer (50 mM Tris-HCl pH 7.4, 150 mM NaCl, 5 mM MgCl2, 15% glycerol); washes with 20 mM imidazole; elution with imidazole, SDS-PAGE and Western blotting; both purified
T1 sequence: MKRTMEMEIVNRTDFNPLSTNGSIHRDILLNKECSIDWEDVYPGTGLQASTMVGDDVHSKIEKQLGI

[2] = biological target: T2, full-length Ump1-6His (S. cerevisiae) (UniProt P38293); assay: as above
T2 sequence: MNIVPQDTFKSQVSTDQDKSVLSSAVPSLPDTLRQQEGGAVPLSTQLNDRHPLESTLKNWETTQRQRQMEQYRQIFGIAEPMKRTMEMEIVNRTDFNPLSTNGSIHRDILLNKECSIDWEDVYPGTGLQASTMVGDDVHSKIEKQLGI

[3] = biological target: T3, Ump1 N-terminal part (1–81)-6His (S. cerevisiae) (UniProt P38293); assay: as above
T3 sequence: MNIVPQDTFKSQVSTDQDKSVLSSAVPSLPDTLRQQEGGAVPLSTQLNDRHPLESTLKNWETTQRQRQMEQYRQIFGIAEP

[4] = biological target: T2, full-length Ump1-6His (S. cerevisiae); assay: pull-down; native extracts of E. coli expressing Ump1-6His incubated with Ni-NTA resin, washed, then incubated with purified untagged β7 versions; elution with imidazole, anti-β7 and anti-Ump1 Western blotting, LI-COR quantification (n = 3); both purified

Row | Substance | binding [1] | binding [2] | binding [3] | binding [4]
1 | recombinant full-length β7 subunit (Pre4), untagged (from UniProt P30657) | binds | binds | binds | binds
2 | recombinant full-length β1 subunit (Pre3), untagged (from UniProt P38624) |  | no binding |  | 

Results are given in words; binding and its absence hold for the method and conditions named. In cells and extracts the contact can be indirect. A result given as binding can be weak or reduced; the word gives no strength. Sequences can lack the tags named with a protein.
